This is one part of the list.
How the values were obtained:
Assay in all cases: log2 fold change, soluble protein after heating vs DMSO (PISA); higher = thermal stabilisation; K562 lysate, 10 uM; active = over 0.2 and 3.5 SD of the protein, either way, in both replicates (recomputed)
[1] = compound: NCC(=O)Nc1ccc(-n2nc(C(F)(F)F)cc2-c2ccc3c(ccc4ccccc43)c2)cc1
Summary of the method: (§1)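 The values are log-two fold changes in thermal stability compared with solvent controls and come from duplicates. They were obtained by TMTpro 16plex LC-MS/MS, with channel sums equalised, on the supernatant after 21,000xg for 90 min. That supernatant came from crude K562 extract at 1 mg/mL protein treated with 10 μM compound for 30 min, heated for 3 min across 48°C-58°C, pooled and brought to 0.5% NP-40 at 4°C.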

Chains of the proteins cited; added tags and fusions are not shown. Lines headed by an entry give the natural chain unless they say otherwise; changes in a name come on top.
UniProt O95716: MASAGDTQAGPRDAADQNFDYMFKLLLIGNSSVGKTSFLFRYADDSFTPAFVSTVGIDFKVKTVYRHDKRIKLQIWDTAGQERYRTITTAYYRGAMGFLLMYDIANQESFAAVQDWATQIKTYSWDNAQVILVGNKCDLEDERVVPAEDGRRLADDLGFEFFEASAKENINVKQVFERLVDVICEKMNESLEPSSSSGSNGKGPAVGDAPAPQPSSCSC
UniProt P47897: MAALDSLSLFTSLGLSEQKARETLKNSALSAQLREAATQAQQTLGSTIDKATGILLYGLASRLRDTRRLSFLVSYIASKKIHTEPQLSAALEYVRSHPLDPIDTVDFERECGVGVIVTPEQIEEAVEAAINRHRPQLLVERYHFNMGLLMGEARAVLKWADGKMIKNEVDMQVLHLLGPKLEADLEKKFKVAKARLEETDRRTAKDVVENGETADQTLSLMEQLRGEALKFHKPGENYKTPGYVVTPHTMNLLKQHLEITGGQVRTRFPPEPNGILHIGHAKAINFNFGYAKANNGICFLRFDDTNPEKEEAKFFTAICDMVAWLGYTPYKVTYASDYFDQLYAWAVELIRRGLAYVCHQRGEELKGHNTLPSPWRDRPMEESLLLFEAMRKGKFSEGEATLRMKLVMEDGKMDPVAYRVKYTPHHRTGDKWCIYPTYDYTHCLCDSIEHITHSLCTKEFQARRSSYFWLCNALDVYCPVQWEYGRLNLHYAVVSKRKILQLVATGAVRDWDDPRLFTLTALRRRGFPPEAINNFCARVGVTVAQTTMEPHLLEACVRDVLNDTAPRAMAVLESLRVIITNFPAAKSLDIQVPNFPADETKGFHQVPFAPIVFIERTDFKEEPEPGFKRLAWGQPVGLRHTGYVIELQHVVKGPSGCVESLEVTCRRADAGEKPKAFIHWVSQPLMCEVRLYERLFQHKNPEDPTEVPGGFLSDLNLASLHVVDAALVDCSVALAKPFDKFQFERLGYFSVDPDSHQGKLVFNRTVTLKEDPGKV
UniProt Q9NS91, whole entry, looked up: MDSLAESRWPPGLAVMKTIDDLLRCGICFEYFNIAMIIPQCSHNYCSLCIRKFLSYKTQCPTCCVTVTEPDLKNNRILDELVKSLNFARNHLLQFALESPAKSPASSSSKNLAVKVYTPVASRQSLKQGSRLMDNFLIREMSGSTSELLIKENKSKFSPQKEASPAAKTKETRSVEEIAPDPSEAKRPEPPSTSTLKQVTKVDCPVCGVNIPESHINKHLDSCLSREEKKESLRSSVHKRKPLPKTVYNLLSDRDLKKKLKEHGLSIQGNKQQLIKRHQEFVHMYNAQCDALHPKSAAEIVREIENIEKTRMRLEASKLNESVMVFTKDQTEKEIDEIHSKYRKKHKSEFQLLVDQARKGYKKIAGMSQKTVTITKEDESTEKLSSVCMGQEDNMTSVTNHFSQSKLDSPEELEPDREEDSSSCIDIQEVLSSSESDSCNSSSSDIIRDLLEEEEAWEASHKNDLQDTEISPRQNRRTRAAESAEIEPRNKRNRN
UniProt Q9ULZ3, whole entry, looked up: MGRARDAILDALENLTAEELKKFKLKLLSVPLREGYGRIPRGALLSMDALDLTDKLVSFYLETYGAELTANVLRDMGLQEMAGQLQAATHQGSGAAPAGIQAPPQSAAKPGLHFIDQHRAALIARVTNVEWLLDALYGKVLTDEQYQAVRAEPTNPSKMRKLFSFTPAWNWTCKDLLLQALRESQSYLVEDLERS
UniProt Q9H0U4: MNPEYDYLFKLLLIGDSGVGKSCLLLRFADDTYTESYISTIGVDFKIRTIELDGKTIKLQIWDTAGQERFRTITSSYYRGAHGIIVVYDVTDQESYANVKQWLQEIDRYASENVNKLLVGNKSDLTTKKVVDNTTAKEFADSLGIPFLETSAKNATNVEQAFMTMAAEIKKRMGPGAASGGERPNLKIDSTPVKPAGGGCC
UniProt Q6GYQ0: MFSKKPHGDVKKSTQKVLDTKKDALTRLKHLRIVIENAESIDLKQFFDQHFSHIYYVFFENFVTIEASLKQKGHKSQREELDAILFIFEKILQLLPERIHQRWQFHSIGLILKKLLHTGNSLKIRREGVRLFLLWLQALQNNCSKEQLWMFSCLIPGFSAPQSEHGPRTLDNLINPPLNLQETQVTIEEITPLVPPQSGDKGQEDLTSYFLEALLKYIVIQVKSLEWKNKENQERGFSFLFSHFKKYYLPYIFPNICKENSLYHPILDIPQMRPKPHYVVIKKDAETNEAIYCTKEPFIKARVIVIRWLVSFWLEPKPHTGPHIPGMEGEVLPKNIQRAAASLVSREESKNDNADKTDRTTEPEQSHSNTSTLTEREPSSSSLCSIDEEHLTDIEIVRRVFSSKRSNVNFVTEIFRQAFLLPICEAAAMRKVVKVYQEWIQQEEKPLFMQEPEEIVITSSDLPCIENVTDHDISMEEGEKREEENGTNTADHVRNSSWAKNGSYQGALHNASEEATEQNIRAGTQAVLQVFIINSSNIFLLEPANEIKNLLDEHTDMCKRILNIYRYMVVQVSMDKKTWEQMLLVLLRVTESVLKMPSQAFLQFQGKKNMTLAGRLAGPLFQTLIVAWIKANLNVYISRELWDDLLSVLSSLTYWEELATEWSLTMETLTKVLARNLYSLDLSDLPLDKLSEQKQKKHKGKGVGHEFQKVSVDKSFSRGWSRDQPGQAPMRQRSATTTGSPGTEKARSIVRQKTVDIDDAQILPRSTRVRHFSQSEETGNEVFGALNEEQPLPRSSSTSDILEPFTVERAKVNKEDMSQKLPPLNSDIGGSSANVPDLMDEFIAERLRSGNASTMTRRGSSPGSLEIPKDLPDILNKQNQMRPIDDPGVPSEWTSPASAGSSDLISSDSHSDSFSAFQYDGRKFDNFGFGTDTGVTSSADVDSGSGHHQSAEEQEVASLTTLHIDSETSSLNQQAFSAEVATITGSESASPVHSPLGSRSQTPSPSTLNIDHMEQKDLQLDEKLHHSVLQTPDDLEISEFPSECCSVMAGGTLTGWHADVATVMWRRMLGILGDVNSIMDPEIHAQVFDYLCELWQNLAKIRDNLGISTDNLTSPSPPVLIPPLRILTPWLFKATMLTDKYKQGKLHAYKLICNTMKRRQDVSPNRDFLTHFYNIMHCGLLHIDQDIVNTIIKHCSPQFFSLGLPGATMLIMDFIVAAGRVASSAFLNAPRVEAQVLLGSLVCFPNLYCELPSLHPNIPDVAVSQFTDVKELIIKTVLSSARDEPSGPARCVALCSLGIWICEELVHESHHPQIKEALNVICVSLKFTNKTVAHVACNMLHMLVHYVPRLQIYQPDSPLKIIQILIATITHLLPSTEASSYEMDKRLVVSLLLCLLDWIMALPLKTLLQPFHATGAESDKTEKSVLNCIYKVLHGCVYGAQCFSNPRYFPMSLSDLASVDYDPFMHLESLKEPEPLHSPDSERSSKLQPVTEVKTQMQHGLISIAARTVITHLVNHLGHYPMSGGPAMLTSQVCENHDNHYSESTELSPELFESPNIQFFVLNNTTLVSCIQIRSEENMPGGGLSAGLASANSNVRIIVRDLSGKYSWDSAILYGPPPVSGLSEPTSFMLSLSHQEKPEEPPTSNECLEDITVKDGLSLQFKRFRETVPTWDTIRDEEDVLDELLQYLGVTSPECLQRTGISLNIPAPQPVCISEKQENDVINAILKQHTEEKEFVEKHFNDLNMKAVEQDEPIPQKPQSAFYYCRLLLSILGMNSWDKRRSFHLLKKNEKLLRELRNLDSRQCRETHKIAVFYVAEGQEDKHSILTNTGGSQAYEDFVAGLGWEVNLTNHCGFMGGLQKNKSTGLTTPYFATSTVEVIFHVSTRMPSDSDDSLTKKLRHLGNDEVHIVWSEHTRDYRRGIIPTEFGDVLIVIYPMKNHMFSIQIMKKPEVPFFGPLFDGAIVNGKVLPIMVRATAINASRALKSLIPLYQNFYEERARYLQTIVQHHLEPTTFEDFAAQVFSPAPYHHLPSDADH
UniProt P61020: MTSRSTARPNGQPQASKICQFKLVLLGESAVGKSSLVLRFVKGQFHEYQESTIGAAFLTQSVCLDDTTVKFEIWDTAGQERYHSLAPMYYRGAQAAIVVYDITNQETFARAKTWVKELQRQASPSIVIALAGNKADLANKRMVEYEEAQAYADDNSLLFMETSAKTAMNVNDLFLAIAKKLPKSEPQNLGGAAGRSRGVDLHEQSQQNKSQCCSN
UniProt P20338: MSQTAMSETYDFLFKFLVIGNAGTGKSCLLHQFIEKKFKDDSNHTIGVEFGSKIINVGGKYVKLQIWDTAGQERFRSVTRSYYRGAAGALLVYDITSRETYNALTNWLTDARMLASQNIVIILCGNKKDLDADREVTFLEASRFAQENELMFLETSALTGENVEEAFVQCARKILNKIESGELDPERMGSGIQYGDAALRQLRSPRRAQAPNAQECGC
UniProt P51153: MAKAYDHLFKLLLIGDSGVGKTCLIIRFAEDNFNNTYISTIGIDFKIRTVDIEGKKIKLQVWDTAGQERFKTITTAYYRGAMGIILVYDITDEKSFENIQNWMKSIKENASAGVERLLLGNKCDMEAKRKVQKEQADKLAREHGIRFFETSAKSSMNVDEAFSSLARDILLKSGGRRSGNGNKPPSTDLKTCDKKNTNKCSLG
UniProt Q96QF0: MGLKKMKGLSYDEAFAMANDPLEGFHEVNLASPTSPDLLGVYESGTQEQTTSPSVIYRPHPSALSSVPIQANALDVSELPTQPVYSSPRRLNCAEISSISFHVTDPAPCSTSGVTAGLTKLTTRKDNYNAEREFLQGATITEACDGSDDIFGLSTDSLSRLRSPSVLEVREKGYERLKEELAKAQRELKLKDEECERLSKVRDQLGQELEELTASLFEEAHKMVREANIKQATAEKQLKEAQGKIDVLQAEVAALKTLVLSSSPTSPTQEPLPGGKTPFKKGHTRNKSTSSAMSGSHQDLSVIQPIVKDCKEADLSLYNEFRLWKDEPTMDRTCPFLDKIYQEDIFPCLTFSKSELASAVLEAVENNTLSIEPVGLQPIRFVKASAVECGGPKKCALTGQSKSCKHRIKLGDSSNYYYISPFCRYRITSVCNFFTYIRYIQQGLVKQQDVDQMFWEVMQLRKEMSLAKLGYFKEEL
UniProt Q6ZRP7: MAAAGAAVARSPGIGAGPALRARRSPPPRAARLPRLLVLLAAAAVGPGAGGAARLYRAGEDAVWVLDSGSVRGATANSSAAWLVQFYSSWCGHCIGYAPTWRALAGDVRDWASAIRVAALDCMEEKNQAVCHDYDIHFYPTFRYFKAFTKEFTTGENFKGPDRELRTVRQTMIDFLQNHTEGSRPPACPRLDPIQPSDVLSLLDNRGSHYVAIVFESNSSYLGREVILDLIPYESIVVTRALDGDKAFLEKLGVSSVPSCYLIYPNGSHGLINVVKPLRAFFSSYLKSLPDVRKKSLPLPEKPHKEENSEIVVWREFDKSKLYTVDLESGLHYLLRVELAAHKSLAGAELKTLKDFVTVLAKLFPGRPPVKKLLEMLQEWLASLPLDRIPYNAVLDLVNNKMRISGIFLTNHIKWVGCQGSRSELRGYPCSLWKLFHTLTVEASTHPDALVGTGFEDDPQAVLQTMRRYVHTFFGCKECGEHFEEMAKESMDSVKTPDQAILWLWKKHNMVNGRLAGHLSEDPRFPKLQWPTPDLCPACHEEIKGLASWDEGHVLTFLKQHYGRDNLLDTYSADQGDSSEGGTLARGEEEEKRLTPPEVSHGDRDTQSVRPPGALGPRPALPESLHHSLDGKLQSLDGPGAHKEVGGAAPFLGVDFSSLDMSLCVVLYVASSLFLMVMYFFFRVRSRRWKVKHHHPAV

[2] = compound: O=C(CCCCCCC(=O)Nc1ccccc1)NO [vorinostat]
Summary of the method: as §1

[3] = compound: O=C(O)c1ccc2c(c1)nc(Nc1cccc(Cl)c1)c1ccncc12 [silmitasertib]
Summary of the method: as §1

[4] = compound: O=C1NC(=O)C(c2cnc3ccccn23)=C1c1cn2c3c(cc(F)cc13)CN(C(=O)N1CCCCC1)CC2
Summary of the method: as §1

[5] = compound: c1cn2cc(-c3ccc4cn[nH]c4c3)nc(Nc3ccc(N4CCOCC4)cc3)c2n1 [entospletinib]
Summary of the method: as §1

Measured: log2 fold change

RAB6A isoform 4 (UniProt P20340)
inactive: [1] 0.118 | [2] 0.154 | [3] -0.027 | [4] -0.022 | [5] -0.029

RANBP10 (UniProt Q6VN20)
inactive: [1] 0.002 | [2] -0.066 | [3] 0.068 | [4] -0.037 | [5] 0.012

RAB3D (UniProt O95716)
inactive: [1] 0.009 | [2] 0.144 | [3] 0.023 | [4] 0.038 | [5] -0.011

RAC1 isoform 2 (UniProt P63000)
inactive: [1] 0.015 | [2] 0.011 | [3] 0.005 | [4] -0.051 | [5] -0.003

RAPGEF2, A0A2R8YGD3
inactive: [1] -0.041 | [2] 0.2 | [3] -0.007 | [4] 0.015 | [5] -0.046

QARS (UniProt P47897)
inactive: [1] 0.008 | [2] -0.225 | [3] 0.021 | [4] 0.029 | [5] 0.007

PYCR2 (UniProt Q96C36)
inactive: [1] 0.002 | [2] 0.1 | [3] -0.008 | [4] 0.015 | [5] 0

QRSL1 (UniProt Q9H0R6)
active: [2] -0.308
inactive: [1] 0.066 | [3] 0.051 | [4] 0.028 | [5] 0.019

RAC3 (UniProt P60763)
inactive: [1] -0.027 | [2] 0.015 | [3] -0.011 | [4] 0.014 | [5] 0.057

RAD18 (UniProt Q9NS91)
inactive: [1] 0.004 | [2] -0.107 | [3] 0.019 | [4] -0.033 | [5] -0.017

RAB31 (UniProt Q13636)
inactive: [1] -0.046 | [2] 0.013 | [3] 0.015 | [4] -0.005 | [5] -0.127

RAC2 (UniProt P15153)
active: [2] -0.25
inactive: [1] -0.073 | [3] 0.024 | [4] 0.102 | [5] 0.024

RAB11A (UniProt P62491)
inactive: [1] 0.099 | [2] 0.12 | [3] 0.046 | [4] 0.034 | [5] 0.004

PYCARD (UniProt Q9ULZ3)
inactive: [1] 0.011 | [2] 0.153 | [3] -0.012 | [4] -0.046 | [5] -0.006

RABIF (UniProt P47224)
inactive: [1] -0.07 | [2] 0.165 | [3] 0.032 | [4] -0.029 | [5] -0.015

RALA (UniProt P11233)
inactive: [1] 0.031 | [2] 0.129 | [3] -0.062 | [4] 0 | [5] -0.006

Quoted at random: 5 records from the list.
QRSL1 (UniProt Q9H0R6)
active: [2] -0.308
inactive: [1] 0.066 | [3] 0.051 | [4] 0.028 | [5] 0.019

RAD18 (UniProt Q9NS91)
inactive: [1] 0.004 | [2] -0.107 | [3] 0.019 | [4] -0.033 | [5] -0.017

RAB11A (UniProt P62491)
inactive: [1] 0.099 | [2] 0.12 | [3] 0.046 | [4] 0.034 | [5] 0.004

RAC3 (UniProt P60763)
inactive: [1] -0.027 | [2] 0.015 | [3] -0.011 | [4] 0.014 | [5] 0.057

RALA (UniProt P11233)
inactive: [1] 0.031 | [2] 0.129 | [3] -0.062 | [4] 0 | [5] -0.006

Additional entries follow.

RAB2A (UniProt P61019)
inactive: [1] -0.095 | [2] 0.141 | [3] -0.001 | [4] -0.011 | [5] 0.006

RAD51B (UniProt O15315)
inactive: [1] -0.101 | [2] -0.256 | [3] -0.019 | [4] 0.091 | [5] -0.073

RAD54L2 (UniProt Q9Y4B4)
active: [2] -0.487
inactive: [1] 0.119 | [3] 0.04 | [4] 0.01 | [5] 0.014

RAB1B (UniProt Q9H0U4)
inactive: [1] 0.025 | [2] 0.186 | [3] 0.007 | [4] -0.039 | [5] -0.011

RAB3IL1 (UniProt E9PK89)
active: [2] -0.614
inactive: [1] 0.016 | [3] 0.011 | [4] 0.079 | [5] -0.158

RAB3GAP1 (UniProt Q15042)
inactive: [1] -0.015 | [2] -0.104 | [3] -0.01 | [4] -0.009 | [5] -0.011

RALGAPA1 isoform 6 (UniProt Q6GYQ0)
inactive: [1] 0.047 | [2] 0.034 | [3] -0.054 | [4] -0.027 | [5] -0.022

RAB5B (UniProt P61020)
inactive: [1] -0.029 | [2] 0.086 | [3] -0.074 | [4] -0.023 | [5] -0.001

RAB4A (UniProt P20338)
inactive: [1] -0.045 | [2] 0.138 | [3] -0.007 | [4] -0.071 | [5] 0

RABEPK (UniProt Q7Z6M1)
active: [2] -0.441
inactive: [1] 0.008 | [3] 0.032 | [4] 0.014 | [5] 0.009

RANBP3 (UniProt Q9H6Z4)
inactive: [1] 0.027 | [2] 0.087 | [3] -0.021 | [4] 0.009 | [5] 0.031

RAMAC (UniProt Q9BTL3)
inactive: [1] -0.021 | [2] 0.058 | [3] -0.089 | [4] -0.007 | [5] 0.04

RAB28 (UniProt P51157)
inactive: [1] -0.078 | [2] -0.154 | [3] 0.061 | [4] -0.06 | [5] -0.048

RAB3A (UniProt P20336)
inactive: [1] -0.021 | [2] 0.085 | [3] -0.009 | [4] -0.007 | [5] 0.046

RAB13 (UniProt P51153)
inactive: [1] -0.034 | [2] -0.056 | [3] 0.117 | [4] -0.251 | [5] -0.039

RAB30 (UniProt Q15771)
inactive: [1] 0.009 | [2] 0.002 | [3] 0.109 | [4] -0.099 | [5] -0.061

RABGAP1L isoform 5 (UniProt Q5R372)
inactive: [1] -0.059 | [2] 0.017 | [3] -0.013 | [4] -0.039 | [5] -0.043

PYM1 (UniProt Q9BRP8)
inactive: [1] 0.05 | [2] 0.147 | [3] -0.041 | [4] 0.024 | [5] -0.015

RAB1A (UniProt P62820)
inactive: [1] -0.016 | [2] 0.135 | [3] 0.021 | [4] -0.027 | [5] -0.034

RAB3IP (UniProt Q96QF0)
inactive: [1] -0.015 | [2] -0.202 | [3] 0.038 | [4] -0.039 | [5] -0.05

RAD23B (UniProt P54727)
inactive: [1] -0.007 | [2] 0.134 | [3] 0.002 | [4] 0.002 | [5] 0.001

RAI14 isoform 2 (UniProt Q9P0K7)
active: [2] -0.254
inactive: [1] 0.005 | [3] 0.022 | [4] 0.015 | [5] -0.003

RAP1GDS1 isoform 5 (UniProt P52306)
inactive: [1] 0.004 | [2] -0.157 | [3] 0.026 | [4] -0.049 | [5] 0.003

RABGEF1 isoform 3 (UniProt Q9UJ41)
inactive: [1] -0.009 | [2] 0.03 | [3] -0.025 | [4] -0.013 | [5] -0.002

RAE1 (UniProt P78406)
inactive: [1] 0.007 | [2] -0.126 | [3] -0.022 | [4] -0.062 | [5] -0.024

RAB3GAP2 (UniProt Q9H2M9)
inactive: [1] -0.033 | [2] -0.084 | [3] 0.008 | [4] -0.008 | [5] 0.026

RAD21 (UniProt O60216)
inactive: [1] -0.06 | [2] 0.038 | [3] -0.002 | [4] -0.019 | [5] -0.003

RAD51C (UniProt O43502)
active: [2] -0.386
inactive: [1] 0.023 | [3] -0.003 | [4] -0.015 | [5] 0.065

RAD23A (UniProt P54725)
inactive: [1] 0.008 | [2] 0.062 | [3] -0.009 | [4] -0.017 | [5] -0.03

QSER1, A0A3B3IRW6
inactive: [1] -0.013 | [3] 0.038 | [4] 0.033 | [5] 0.002
active: [2] -0.236

RAP1B (UniProt F5GZG1)
inactive: [1] -0.051 | [2] -0.054 | [3] -0.004 | [4] -0.099 | [5] -0.026

RAB9A (UniProt P51151)
inactive: [1] -0.001 | [2] 0.146 | [3] -0.006 | [4] -0.02 | [5] -0.008

RALB isoform 2 (UniProt P11234)
inactive: [1] -0.003 | [2] 0.162 | [3] 0 | [4] -0.009 | [5] -0.07

QSOX2 (UniProt Q6ZRP7)
inactive: [1] 0.035 | [2] 0.131 | [3] 0 | [4] -0.001 | [5] -0.018

RAP2C (UniProt Q9Y3L5)
inactive: [1] 0.089 | [2] 0.13 | [3] -0.026 | [4] 0.058 | [5] 0.005

RANGAP1 (UniProt P46060)
inactive: [1] 0.021 | [2] -0.112 | [3] 0.015 | [4] 0.003 | [5] 0.015

RAP1GAP isoform 4 (UniProt P47736)
active: [2] -0.419
inactive: [1] -0.058 | [3] -0.035 | [4] 0.022 | [5] -0.012
